Results deposited as PubChem BioAssay AID1259293 (Sanger Institute, 2017).

- Test: 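Kinase knock-downs that boost cell killing by PI3K, EGFR or MEK drugs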 (follow-up of hits)
- Cells: human NCI-H716 colorectal cancer cells
- Reagent: single siRNA against human genes
- Conditions: anchor drugs BYL719 at 1 µM, cetuximab at 5 µg/ml or trametinib at 10 nM, or DMSO vehicle alone
- Read-out: 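For every anchor drug, viability versus control pool 2 (non-targeting) and a synergy score of drug with siRNA, each a replicate average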
- Scale: synergy score with BYL719 and synergy score with cetuximab and synergy score with trametinib: higher = stronger synthetic lethal effect with drug; viability, siRNA alone in vehicle: higher = more cells survive knock-down
- Call rule: 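An siRNA is active if its synergy score is above 0.10 for one or more of the three anchor drugs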
- Meaning of the calls: active = synergy with at least one drug; inactive = no synergy with any drug
Shown is one part, drawn at random, of 160 reagents. Over the whole deposit, 46 (29%) are marked active. 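The method behind the synergy score is not described; each call refers to one siRNA in a single cell line.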 The numbers tell different reagents against one gene apart. Viability is capped at 1. Reagent sequences are not shown. Not stated in the record: the amount of reagent, the time to read-out.

| gene | reagent | synergy score with BYL719 | synergy score with cetuximab | synergy score with trametinib | viability, siRNA alone in vehicle (fraction of control) | call |
| --- | --- | --- | --- | --- | --- | --- |
| PRAG1 | 1 | 0.00814 | -0.109 | -0.227 | 1 | inactive |
| PRAG1 | 2 | 0.704 | -0.109 | -0.0962 | 1 | active |
| PRAG1 | 3 | 0.0162 | -0.191 | 0.101 | 0.758 | active |
| PRAG1 | 4 | 0.132 | -0.0544 | 0.133 | 0.899 | active |
| ACVR1 | 1 | -0.294 | -0.0529 | -0.0866 | 0.486 | inactive |
| ACVR1 | 2 | -0.371 | -0.33 | -0.137 | 0.432 | inactive |
| ACVR1 | 3 | -0.36 | -0.305 | -0.235 | 0.78 | inactive |
| ACVR1 | 4 | -0.127 | -0.0418 | -0.122 | 0.584 | inactive |
| CDKN2D | 1 | -0.169 | -0.328 | -0.0365 | 0.519 | inactive |
| CDKN2D | 2 | 0.06 | -0.0275 | 0.157 | 0.454 | active |
| CDKN2D | 3 | 0.0516 | 0.0462 | 0.239 | 1 | active |
| CDKN2D | 4 | 0.0466 | -0.0271 | 0.0219 | 0.649 | inactive |
| HUNK | 1 | -0.197 | 0.0287 | -0.0733 | 0.736 | inactive |
| HUNK | 2 | -0.14 | -0.0936 | 0.147 | 0.66 | active |
| HUNK | 3 | -0.063 | -0.263 | -0.0414 | 0.715 | inactive |
| HUNK | 4 | 0.125 | 0.031 | 0.111 | 0.715 | active |
| MAPK4 | 1 | -0.022 | 0.292 | 0.171 | 0.91 | active |
| MAPK4 | 2 | -0.369 | -0.135 | -0.166 | 0.541 | inactive |
| MAPK4 | 3 | -0.177 | -0.121 | 0.0379 | 0.986 | inactive |
| MAPK4 | 4 | -0.0563 | -0.0236 | 0.0915 | 0.617 | inactive |
| GTF2H1 | 1 | -0.15 | -0.445 | -0.246 | 0.595 | inactive |
| GTF2H1 | 2 | -0.136 | -0.204 | -0.0743 | 0.878 | inactive |
| GTF2H1 | 3 | -0.342 | -0.286 | -0.126 | 0.801 | inactive |
| GTF2H1 | 4 | 0.0299 | -0.109 | 0.143 | 1 | active |

A few values from the entries so far.
For “call”, MAPK4 #4 reads inactive
Value for HUNK #3 in “synergy score with BYL719”: -0.063
